Assay results from publication PMC5374524, “Label-free quantification of calcium-sensor targeting to photoreceptor guanylate cyclase and rhodopsin kinase by backscattering interferometry” (Scientific Reports, 2017).
These are yes or no findings as the source states them, for the method shown. Some entries that bind do so weakly or less than the wild type. For some assays here: Tags and fused reporters may be left off the sequences shown. Values belong to the binder of their own block, whether it stands above or below them.

Sequences of proteins named here, by UniProt entry; tags and fusion partners are left off. Residues count along the entry.
UniProt Q02846, residues 868-1103: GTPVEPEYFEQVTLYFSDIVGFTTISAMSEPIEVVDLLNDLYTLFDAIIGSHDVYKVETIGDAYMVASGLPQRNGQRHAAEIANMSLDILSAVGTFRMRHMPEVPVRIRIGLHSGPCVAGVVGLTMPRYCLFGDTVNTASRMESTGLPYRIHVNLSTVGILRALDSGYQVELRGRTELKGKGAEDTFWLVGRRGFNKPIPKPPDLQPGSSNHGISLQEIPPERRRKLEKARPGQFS

Tests used:
[1] = molecular target: T1, GST fusion protein containing the N-terminal 25 amino acids of bovine GRK1 (bovine) (UniProt P28327); experiment: backscattering interferometry (BSI); free solution, label-free; recoverin dilution series with constant 4 μM GST-NRK; 20 mM HEPES/KOH pH 7.5, 100 mM NaCl, 1 mM MgCl2, 1 mM EGTA (no Ca2+); GST alone as reference; both purified
T1 sequence: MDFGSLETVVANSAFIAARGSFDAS

[2] = molecular target: MBP-CD: maltose binding protein fused to the catalytic domain of human GC-E (G868-S1103) (human) (UniProt Q02846); experiment: backscattering interferometry (BSI); free solution; myristoylated GCAP 0 to 6 μM with constant 375 nM MBP fusion protein; titration buffer with 200 μM Ca2+; MBP lacking a GC-E fragment as reference; both purified

B1: myristoylated bovine recoverin (protein, UniProt P21457 1-202)
chain: MGNSKSGALSKEILEELQLNTKFTEEELSSWYQSFLKECPSGRITRQEFQTIYSKFFPEADPKAYAQHVFRSFDANSDGTLDFKEYVIALHMTSAGKTNQKLEWAFSLYDVDGNGTISKNEVLEIVTAIFKMISPEDTKHLPEDENTPEKRAEKIWGFFGKKDDDKLTEKEFIEGTLANKEILRLIQFEPQKVKEKLKEKKL
modifications: myristoylated
binding [1]: no binding (condition: in the absence of Ca2+ (1 mM EGTA))

binding [2]: binds
B2: guanylate cyclase-activating protein 2 (GCAP2), myristoylated (natural protein, UniProt P51177 1-204, looked up)
chain: MGQQFSWEEAEENGAVGAADAAQLQEWYKKFLEECPSGTLFMHEFKRFFKVPDNEEATQYVEAMFRAFDTNGDNTIDFLEYVAALNLVLRGTLEHKLKWTFKIYDKDRNGCIDRQELLDIVESIYKLKKACSVEVEAEQQGKLLTPEEVVDRIFLLVDENGDGQLSLNEFVEGARRDKWVMKMLQMDLNPSSWISQQRRKSAMF
modifications: myristoylated
